Experiment [1] deals with Flag-vimentin (HEK293T) (human) (UniProt P08670). Nature of the experiment: co-IP; anti-Flag beads precipitate Flag-vimentin, HA-PRMT1 detected (Figure S4A); CoCl2 time course in HEK293T (Figure S4C: less at 2 h, more at 8 h); NP-40 lysis buffer, 4 °C, 2 h.
The target in experiment [2] is Flag-vimentin (HeLa) (human) (UniProt P08670). Description: co-IP; HeLa cells, normoxia or hypoxia (12 h) (Figure S4D); constructs not told in the text shown.
Experiment [3] has as its target Flag-PRMT1 (HEK293T, of the Flag-PRMT1-8 set) (human) (UniProt Q99873). Description: co-IP; HEK293T transfected with Flag-PRMT1-8, 48 h; lysates precipitated with anti-Flag beads; blot for endogenous vimentin; NP-40 lysis buffer, 4 °C, 2 h.

The chains behind the UniProt entries cited, without tags or fusion partners. Where a name states a change or a piece, a line headed by the entry shows the natural chain unless it says otherwise.
UniProt P08670: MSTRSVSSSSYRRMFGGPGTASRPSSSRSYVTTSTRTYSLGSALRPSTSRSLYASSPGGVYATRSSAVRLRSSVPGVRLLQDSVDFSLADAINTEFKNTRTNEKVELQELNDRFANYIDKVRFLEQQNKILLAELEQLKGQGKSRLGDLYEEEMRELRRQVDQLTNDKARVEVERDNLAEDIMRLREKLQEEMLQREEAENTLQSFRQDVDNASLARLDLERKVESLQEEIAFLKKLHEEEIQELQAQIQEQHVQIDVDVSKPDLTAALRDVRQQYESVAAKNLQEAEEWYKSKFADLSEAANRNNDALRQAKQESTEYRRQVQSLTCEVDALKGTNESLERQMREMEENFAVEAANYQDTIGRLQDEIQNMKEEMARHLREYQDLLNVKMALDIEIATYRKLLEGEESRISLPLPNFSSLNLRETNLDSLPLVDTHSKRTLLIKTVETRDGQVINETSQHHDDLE
UniProt Q99873: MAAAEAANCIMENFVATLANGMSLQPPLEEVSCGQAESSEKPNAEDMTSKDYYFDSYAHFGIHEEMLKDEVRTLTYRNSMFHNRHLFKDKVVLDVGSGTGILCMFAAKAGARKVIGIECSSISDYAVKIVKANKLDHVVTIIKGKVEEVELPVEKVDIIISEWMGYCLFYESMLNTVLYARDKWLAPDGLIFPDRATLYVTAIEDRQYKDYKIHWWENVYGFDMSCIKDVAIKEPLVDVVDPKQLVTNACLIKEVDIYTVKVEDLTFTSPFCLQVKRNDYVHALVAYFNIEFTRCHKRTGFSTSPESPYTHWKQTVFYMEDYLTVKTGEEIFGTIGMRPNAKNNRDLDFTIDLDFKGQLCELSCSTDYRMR

No constants are given. Whether binding was seen depends on the method and setting. Binding seen in cells or lysates may run through a third protein. Binding can be weak; no strength is given.

In the case of “HA-PRMT1 (reciprocal co-IP, Figure S4A) (from UniProt Q99873) (enzyme)”, in experiment [1], the binding result was “binds”. Regarding “PRMT1 (HeLa, Figure S4D) (from UniProt Q99873) (enzyme)”, the binding entry in experiment [2] is reported as “binds”. Regarding “vimentin (endogenous, HEK293T) (from UniProt P08670 1-466)”, the binding result in experiment [3] was “binds”.

These data come from publication PMC12591124.
